{"source": "paper PMC10982699", "binders": {"B1": {"name": "6xHis-Dpb3 (protein, UniProt C6Y4D0 1-87)", "chain": "MEKTYGKTVLPLSRVKRIIKQDEDVHYCSNASALLISVATELFVEKLATEAYQLAKLQKRKGIRYRDVEDVVRKDDQFEFLSDLFSI"}}, "molecular_target": "T1, GST-Dpb4 (fission yeast (Schizosaccharomyces pombe)) (UniProt P87174)", "T1 sequence": "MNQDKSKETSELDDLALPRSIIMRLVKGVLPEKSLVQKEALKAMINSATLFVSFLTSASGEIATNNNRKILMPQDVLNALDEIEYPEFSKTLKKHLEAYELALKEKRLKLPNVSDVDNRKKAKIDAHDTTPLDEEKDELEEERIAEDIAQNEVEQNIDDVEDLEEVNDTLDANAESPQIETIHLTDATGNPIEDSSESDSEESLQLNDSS", "assay": "co-purification in two affinity steps; coexpression of GST-Dpb4 and 6xHis-Dpb3, then Talon and GST resins", "note": "Results are given in words; binding and its absence hold for the method and conditions named. Some entries that bind do so weakly or less than the wild type. Tags and fused reporters may be left off the sequences shown.", "data": [{"binder": "B1", "values": [{"measurement": "binding", "value": "binds"}]}]}
